Laboratory results taken from patent US20160347813A1 (Zealand Pharma A/S, priority 2011, published 2016).

What was measured:
[1] = general procedure: Fmoc solid-phase peptide synthesis; TentaGel S Ram (polystyrene resin); HATU with DIPEA; details: whole synthesis, analytical HPLC and MS, scale of the general procedure 1.04 g resin, 0.25 mmol/g
[2] = general procedure: Fmoc solid-phase peptide synthesis; TentaGel S Ram; HATU with DIPEA; details: whole synthesis, scale 1.04 g; 0.25 mmol/g

## H-H-Aib-QGTFTSDYSKYLD-K(Hexadecanoyl-isoGlu)-RRAKDFIEWLLSA-NH2
[1]
  final purity (method not given): 95%
[2]
  isolated mass: 88 mg
